The results in this text go back to PMC9484695, “The evolutionary conserved proteins CEP90, FOPNL, and OFD1 recruit centriolar distal appendage proteins to initiate their assembly” (PLoS Biology, 2022).

Assay [1] concerns the target T1, MNR-GFP (UniProt Q2KHM9).
T1 sequence: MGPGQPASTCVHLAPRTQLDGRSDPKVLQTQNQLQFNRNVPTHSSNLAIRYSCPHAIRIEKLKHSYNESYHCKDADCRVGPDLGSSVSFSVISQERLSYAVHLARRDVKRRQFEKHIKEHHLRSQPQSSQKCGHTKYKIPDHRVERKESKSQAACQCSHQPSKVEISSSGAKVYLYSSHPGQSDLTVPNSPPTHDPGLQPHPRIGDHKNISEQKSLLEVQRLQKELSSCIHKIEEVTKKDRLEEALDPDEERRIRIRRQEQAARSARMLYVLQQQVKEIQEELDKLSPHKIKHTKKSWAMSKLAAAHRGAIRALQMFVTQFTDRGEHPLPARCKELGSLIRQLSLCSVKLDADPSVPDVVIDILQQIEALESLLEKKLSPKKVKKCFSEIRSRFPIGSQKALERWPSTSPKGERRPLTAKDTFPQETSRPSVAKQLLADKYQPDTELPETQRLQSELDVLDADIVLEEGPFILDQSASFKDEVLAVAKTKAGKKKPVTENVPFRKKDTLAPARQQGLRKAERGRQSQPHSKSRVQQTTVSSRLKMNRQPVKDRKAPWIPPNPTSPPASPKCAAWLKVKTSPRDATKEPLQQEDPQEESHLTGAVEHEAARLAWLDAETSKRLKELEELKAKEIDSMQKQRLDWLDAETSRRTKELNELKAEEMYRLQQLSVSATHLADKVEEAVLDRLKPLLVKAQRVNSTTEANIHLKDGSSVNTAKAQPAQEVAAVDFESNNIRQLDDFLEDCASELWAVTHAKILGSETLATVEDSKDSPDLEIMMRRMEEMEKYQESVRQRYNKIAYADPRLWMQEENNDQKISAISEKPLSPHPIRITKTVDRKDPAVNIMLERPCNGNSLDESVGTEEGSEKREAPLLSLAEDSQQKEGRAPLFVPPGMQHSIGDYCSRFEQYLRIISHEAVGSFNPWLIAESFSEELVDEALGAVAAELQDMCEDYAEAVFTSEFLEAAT
The experiment in a line: microtubule recruitment (displacement) assay; U2OS cotransfected with MNR-GFP (on microtubules, bait) and myc-FOPNL, OFD1 mCherry or CEP90, 24 h; localisation of the co-overexpressed protein read by microscopy.

In assay [2] the target is T1, MNR-GFP. Nature of the assay: microtubule recruitment (displacement) assay; U2OS cotransfected with MNR-GFP and CEP90, OFD1 mCherry or myc-FOPNL, 24 h; endogenous OFD1, CEP90, CEP83, CEP89, CEP164 stained; percent of cells with the endogenous protein on microtubules, 100 < N < 150 cells per condition, 3 experiments.

These are yes or no findings as the source states them, for the method shown. Some entries that bind do so weakly or less than the wild type. Sequences can lack the tags named with a protein.

B1: OFD1-mcherry (protein, UniProt O75665 1-1012)
chain: MMAQSNMFTVADVLSQDELRKKLYQTFKDRGILDTLKTQLRNQLIHELMHPVLSGELQPRSISVEGSSLLIGASNSLVADHLQRCGYEYSLSVFFPESGLAKEKVFTMQDLLQLIKINPTSSLYKSLVSGSDKENQKGFLMHFLKELAEYHQAKESCNMETQTSSTFNRDSLAEKLQLIDDQFADAYPQRIKFESLEIKLNEYKREIEEQLRAEMCQKLKFFKDTEIAKIKMEAKKKYEKELTMFQNDFEKACQAKSEALVLREKSTLERIHKHQEIETKEIYAQRQLLLKDMDLLRGREAELKQRVEAFELNQKLQEEKHKSITEALRRQEQNIKSFEETYDRKLKNELLKYQLELKDDYIIRTNRLIEDERKNKEKAVHLQEELIAINSKKEELNQSVNRVKELELELESVKAQSLAITKQNHMLNEKVKEMSDYSLLKEEKLELLAQNKLLKQQLEESRNENLRLLNRLAQPAPELAVFQKELRKAEKAIVVEHEEFESCRQALHKQLQDEIEHSAQLKAQILGYKASVKSLTTQVADLKLQLKQTQTALENEVYCNPKQSVIDRSVNGLINGNVVPCNGEISGDFLNNPFKQENVLARMVASRITNYPTAWVEGSSPDSDLEFVANTKARVKELQQEAERLEKAFRSYHRRVIKNSAKSPLAAKSPPSLHLLEAFKNITSSSPERHIFGEDRVVSEQPQVGTLEERNDVVEALTGSAASRLRGGTSSRRLSSTPLPKAKRSLESEMYLEGLGRSHIASPSPCPDRMPLPSPTESRHSLSIPPVSSPPEQKVGLYRRQTELQDKSEFSDVDKLAFKDNEEFESSFESAGNMPRQLEMGGLSPAGDMSHVDAAAAAVPLSYQHPSVDQKQIEEQKEEEKIREQQVKERRQREERRQSNLQEVLERERRELEKLYQERKMIEESLKIKIKKELEMENELEMSNQEIKDKSAHSENPLEKYMKIIQQEQDQESADKSSKKMVQEGSLVDTLQSSDKVESLTGFSHEELDDSW
Take B1: the binding entry with MNR-GFP [1] is given as “binds”.

B2: OFD1 (endogenous) (natural protein, UniProt O75665 1-1012, looked up)
chain: B1 chain
notes: OFD1, endogenous human protein; source: endogenous: HEK293 Flp-In cells (BioID); Hela Kyoto lysate (co-IP); U2OS cells (microtubule recruitment assay)
For B2, the binding entry in the assay with MNR-GFP [2] is on record as “binds”.

B3: myc-FOPNL (protein, UniProt Q96NB1 1-174)
chain: MATVAELKAVLKDTLEKKGVLGHLKARIRAEVFNALDDDREPRPSLSHENLLINELIREYLEFNKYKYTASVLIAESGQPVVPLDRQFLIHELNAFEESKDNTIPLLYGILAHFLRGTKDGIQNAFLKGPSLQPSDPSLGRQPSRRKPMDDHLRKEEQKSTNIEDLHVSQAVNR
Turning to B3, in the assay with MNR-GFP [1], the binding result is on record as “binds”.

B4: CEP90 (overexpressed) (protein, UniProt Q8WXW3 1-757)
chain: MSRKISKESKKVNISSSLESEDISLETTVPTDDISSSEEREGKVRITRQLIERKELLHNIQLLKIELSQKTMMIDNLKVDYLTKIEELEEKLNDALHQKQLLTLRLDNQLAFQQKDASKYQELMKQEMETILLRQKQLEETNLQLREKAGDVRRNLRDFELTEEQYIKLKAFPEDQLSIPEYVSVRFYELVNPLRKEICELQVKKNILAEELSTNKNQLKQLTETYEEDRKNYSEVQIRCQRLALELADTKQLIQQGDYRQENYDKVKSERDALEQEVIELRRKHEILEASHMIQTKERSELSKEVVTLEQTVTLLQKDKEYLNRQNMELSVRCAHEEDRLERLQAQLEESKKAREEMYEKYVASRDHYKTEYENKLHDELEQIRLKTNQEIDQLRNASREMYERENRNLREARDNAVAEKERAVMAEKDALEKHDQLLDRYRELQLSTESKVTEFLHQSKLKSFESERVQLLQEETARNLTQCQLECEKYQKKLEVLTKEFYSLQASSEKRITELQAQNSEHQARLDIYEKLEKELDEIIMQTAEIENEDEAERVLFSYGYGANVPTTAKRRLKQSVHLARRVLQLEKQNSLILKDLEHRKDQVTQLSQELDRANSLLNQTQQPYRYLIESVRQRDSKIDSLTESIAQLEKDVSNLNKEKSALLQTKNQMALDLEQLLNHREELAAMKQILVKMHSKHSENSLLLTKTEPKHVTENQKSKTLNVPKEHEDNIFTPKPTLFTKKEAPEWSKKQKMKT
With B4, the binding result in the assay with MNR-GFP [1] is on record as “binds”.
